This is one part of the list.

Experimental findings from the supplement of paper PMC10849652 are described below.

Compound in the assay: CCN(CCCOc1ccc2c(Nc3cc(CC(=O)Nc4cccc(F)c4)[nH]n3)ncnc2c1)CCOP(=O)(O)O [barasertib]
Nature of the assay: log2 fold change, soluble protein after heating vs DMSO (PISA); higher = thermal stabilisation; K562 cells, 10 uM, 30 min; active = over 0.2 and 3.5 SD of the protein, either way, in both replicates (recomputed). The essentials: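 K562 cells at 2×10^6 cells/mL were given 10 μM compound for 30 min. Aliquots then went through 3 min of heating across 48°C-58°C, were pooled, and were extracted in PBS with 0.5% NP-40 at 4°C, and the supernatant after 21,000xg for 90 min was quantified by TMTpro 16plex LC-MS/MS with channel sums equalised. Thermal stability relative to control samples, from duplicates, is given as log2 fold change.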
As to PPP1R3D (UniProt O95685), the log2 fold change was inactive: 0.078. The same measure for PRNP (UniProt P04156): inactive: 0.019. For PROSER3 (UniProt Q2NL68) the value was inactive: 0.229; for PPP2R5C isoform 2 (UniProt Q13362), inactive: 0.055; for PPP1R13L (UniProt Q8WUF5), inactive: -0.508.

For PRKCSH isoform 2 (UniProt P14314), the log2 fold change is inactive: 0.013. For PRF1 (UniProt P14222) the value was inactive: 0.215. The same measure for PRR4 (UniProt Q16378): inactive: 0.203. The same measure for PPP1R21 (UniProt Q6ZMI0): inactive: -0.032; for PRKX (UniProt P51817): inactive: 0.126. As for PPP2R5B (UniProt Q15173), the log2 fold change is inactive: 0.009. For PPP1R12B isoform 6 (UniProt O60237) the value was inactive: 0.108; for PRMT6 (UniProt Q96LA8), inactive: 0.126; for PPP1CC (UniProt F8W1A0), inactive: -0.096. For PRKD2 (UniProt M0R346) the value was inactive: -0.337.

For the target PPP2R1B (UniProt H0YDG7), the log2 fold change was inactive: 0.076.
